# Experimental data reported in PMC8384837.
# Residue numbers refer to the chain shown, from its start. The list shows a part of the results. For some assays here: At the low end of the ranking the order means little.
# Columns and labels:
# Conditions in all cases: yeast three-hybrid, YBZ-1, SC-Leu-His + 0.5 mM 3-AT, 4 days
# [1] = target: T1, PUM1 PUF domain R3-SKL C935S + R936K + Q939L (UniProt Q14671)
# T1 sequence: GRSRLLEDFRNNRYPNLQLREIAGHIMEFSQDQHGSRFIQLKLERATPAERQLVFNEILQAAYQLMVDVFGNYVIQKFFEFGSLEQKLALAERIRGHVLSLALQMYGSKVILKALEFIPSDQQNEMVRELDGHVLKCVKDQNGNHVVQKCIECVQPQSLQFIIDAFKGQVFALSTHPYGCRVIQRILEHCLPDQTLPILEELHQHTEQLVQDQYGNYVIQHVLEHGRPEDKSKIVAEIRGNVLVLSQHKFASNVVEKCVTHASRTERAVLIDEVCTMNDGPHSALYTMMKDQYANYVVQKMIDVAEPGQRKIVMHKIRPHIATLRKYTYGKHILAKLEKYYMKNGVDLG
# [2] = target: T2, PUM1 PUF domain R3-SLE C935S + R936L + Q939E (UniProt Q14671)
# T2 sequence: T1 sequence with K109L, L112E
# [3] = target: T3, PUM1 PUF domain R3-SND C935S + R936N + Q939D (Homo sapiens) (UniProt Q14671)
# T3 sequence: T1 sequence with K109N, L112D
# [4] = target: T4, PUM1 PUF domain R3-SNR C935S + R936N + Q939R (Homo sapiens) (UniProt Q14671)
# T4 sequence: T1 sequence with K109N, L112R
# [5] = target: T5, PUM1 PUF domain R3-SSD C935S + R936S + Q939D (UniProt Q14671)
# T5 sequence: T1 sequence with K109S, L112D
# [6] = target: T6, PUM1 PUF domain R3-SSK C935S + R936S + Q939K (UniProt Q14671)
# T6 sequence: T1 sequence with K109S, L112K
# [7] = target: T7, PUM1 PUF domain R3-VCK C935V + R936C + Q939K (Homo sapiens) (UniProt Q14671)
# T7 sequence: T1 sequence with S108V, K109C, L112K
# [8] = target: T8, PUM1 PUF domain R3-WAR C935W + R936A + Q939R (Homo sapiens) (UniProt Q14671)
# T8 sequence: T1 sequence with S108W, K109A, L112R
# [9] = target: T9, PUM1 PUF domain R3-WCA C935W + R936C + Q939A (UniProt Q14671)
# T9 sequence: T1 sequence with S108W, K109C, L112A
# [10] = target: T10, PUM1 PUF domain R3-WCG C935W + R936C + Q939G (UniProt Q14671)
# T10 sequence: T1 sequence with S108W, K109C, L112G
# [11] = target: T11, PUM1 PUF domain R3-WCL C935W + R936C + Q939L (UniProt Q14671)
# T11 sequence: T1 sequence with S108W, K109C
# [12] = target: T12, PUM1 PUF domain R3-WCR C935W + R936C + Q939R (Homo sapiens) (UniProt Q14671)
# T12 sequence: T1 sequence with S108W, K109C, L112R
# [13] = target: T13, PUM1 PUF domain R3-WCS C935W + R936C + Q939S (UniProt Q14671)
# T13 sequence: T1 sequence with S108W, K109C, L112S
# [14] = target: T14, PUM1 PUF domain R3-WFG C935W + R936F + Q939G (Homo sapiens) (UniProt Q14671)
# T14 sequence: T1 sequence with S108W, K109F, L112G
# [15] = target: T15, PUM1 PUF domain R3-WFS C935W + R936F + Q939S (Homo sapiens) (UniProt Q14671)
# T15 sequence: T1 sequence with S108W, K109F, L112S
# [16] = target: T16, PUM1 PUF domain R3-WWD C935W + R936W + Q939D (Homo sapiens) (UniProt Q14671)
# T16 sequence: T1 sequence with S108W, K109W, L112D
# [17] = target: T17, PUM1 PUF domain R3-WWG C935W + R936W + Q939G (Homo sapiens) (UniProt Q14671)
# T17 sequence: T1 sequence with S108W, K109W, L112G
# [18] = target: T18, PUM1 PUF domain R3-WWV C935W + R936W + Q939V (Homo sapiens) (UniProt Q14671)
# T18 sequence: T1 sequence with S108W, K109W, L112V
# [19] = target: T19, PUM1 PUF domain R3-THE R4-TFR R5-PHQ R6-SWD C935T + R936H + Q939E + N971T + H972F + Q975R + C1007P + R1008H + N1043S + Y1044W + Q1047D (Homo sapiens) (UniProt Q14671)
# T19 sequence: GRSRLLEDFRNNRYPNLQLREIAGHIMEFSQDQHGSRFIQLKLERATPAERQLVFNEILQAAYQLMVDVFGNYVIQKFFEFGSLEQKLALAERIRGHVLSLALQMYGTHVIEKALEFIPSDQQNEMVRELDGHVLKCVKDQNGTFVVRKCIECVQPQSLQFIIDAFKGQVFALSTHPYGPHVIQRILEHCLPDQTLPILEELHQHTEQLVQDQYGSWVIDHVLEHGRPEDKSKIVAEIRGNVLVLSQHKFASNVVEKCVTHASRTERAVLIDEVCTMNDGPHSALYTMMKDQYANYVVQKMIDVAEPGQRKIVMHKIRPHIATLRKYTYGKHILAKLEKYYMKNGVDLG
# [20] = target: T20, PUM1 PUF domain R3-THE R4-TFR R6-SWD C935T + R936H + Q939E + N971T + H972F + Q975R + N1043S + Y1044W + Q1047D (Homo sapiens) (UniProt Q14671)
# T20 sequence: T19 sequence with P180C, H181R
Sequence,binding signal (log2 enrichment (interaction score)) [1],binding signal (log2 enrichment (interaction score)) [2],binding signal (log2 enrichment (interaction score)) [3],binding signal (log2 enrichment (interaction score)) [4],binding signal (log2 enrichment (interaction score)) [5],binding signal (log2 enrichment (interaction score)) [6],binding signal (log2 enrichment (interaction score)) [7],binding signal (log2 enrichment (interaction score)) [8],binding signal (log2 enrichment (interaction score)) [9],binding signal (log2 enrichment (interaction score)) [10],binding signal (log2 enrichment (interaction score)) [11],binding signal (log2 enrichment (interaction score)) [12],binding signal (log2 enrichment (interaction score)) [13],binding signal (log2 enrichment (interaction score)) [14],binding signal (log2 enrichment (interaction score)) [15],binding signal (log2 enrichment (interaction score)) [16],binding signal (log2 enrichment (interaction score)) [17],binding signal (log2 enrichment (interaction score)) [18],binding signal (log2 enrichment (interaction score)) [19],binding signal (log2 enrichment (interaction score)) [20]
GGCUAGAACUAGUGGAUCCCCCGGCGCCCGGCGGCUCGAGCCCGGGUAAGUGUAAAUAGUCUGCAUGCCGCCGGGCGCCAUGCCUGCAGGUCGACUCUAGAAAACAUG,-2.1,< -7.54,-0.73,-0.14,-5.08,< -7.8,-0.45,-0.29,< -7.76,-3.12,-3.2,-0.73,-2.9,-4.86,-1.74,-3.61,0.11,-0.51,–,–
GGCUAGAACUAGUGGAUCCCCCGGCGCCCGGCGGCUCGAGCCCGGGUAAGUGGACGUAGUCUGCAUGCCGCCGGGCGCCAUGCCUGCAGGUCGACUCUAGAAAACAUG,–,–,–,–,–,–,–,–,–,–,–,–,–,–,–,–,–,–,-0.44,0.13
